Laboratory results taken from publication PMC12070071, “The Drosophila pseudokinase Tribbles translocates to the fat body membrane in response to fasting to modulate insulin sensitivity” (Development (Cambridge, England), 2025).
Substitutions are numbered along the chain they refer to. No constants are given. Whether binding was seen depends on the method and setting. Some results given as binding are weak or reduced against the parent protein; the word gives no strength. For some assays here: Sequences can lack the tags named with a protein.

The chains behind the UniProt entries cited, without tags or fusion partners.
UniProt Q02637: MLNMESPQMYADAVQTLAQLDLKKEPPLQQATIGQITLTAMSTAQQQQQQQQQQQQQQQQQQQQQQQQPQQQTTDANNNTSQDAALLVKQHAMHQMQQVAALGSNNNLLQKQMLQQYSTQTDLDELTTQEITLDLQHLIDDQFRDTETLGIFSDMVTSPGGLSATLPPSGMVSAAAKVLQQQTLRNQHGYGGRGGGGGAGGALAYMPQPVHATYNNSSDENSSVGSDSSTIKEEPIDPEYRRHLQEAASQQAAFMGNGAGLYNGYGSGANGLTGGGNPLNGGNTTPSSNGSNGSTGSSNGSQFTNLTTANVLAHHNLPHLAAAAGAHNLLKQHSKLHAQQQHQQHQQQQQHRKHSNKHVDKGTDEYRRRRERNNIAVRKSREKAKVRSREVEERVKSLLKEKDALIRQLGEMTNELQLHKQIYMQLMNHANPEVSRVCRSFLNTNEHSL

B1: Drosophila Tribbles (Trbl), wild type, yeast two-hybrid fusion (natural protein, UniProt Q9V3Z1 1-484, looked up)
chain: MDNSSGQNSRTASSASTSKIVNYSSPVSPGVAAATSSSSSSSSSGMSSSQEDTVLGLFTPKKEFPNAKMLQTIREKLMTPGGACDLLALGIAAEPTDQQPVKLIQQRYLISAQPSHISAAVAAKTPASYRHLVDLTASNLRCVDIFTGEQFLCRIVNEPLHKVQRAYFQLQQHDEELRRSTIYGHPLIRPVHDIIPLTKDRTYILIAPVPQERDSTGGVTGVYENLHTYIRHAKRLCETEARAIFHQICQTVQVCHRNGIILRDLKLKRFYFIDEARTKLQYESLEGSMILDGEDDTLSDKIGCPLYTAPELLCPQQTYKGKPADMWSLGVILYTMLVGQYPFYEKANCNLITVIRHGNVQIPLTLSKSVRWLLLSLLRKDYTERMTASHIFLTPWLREQRPFHMYLPVDVEVAEDWSDAEEDEGTAADAMDDDEEGLCPLGDKHEYEDIGVEPLDYTRSTLQMAQNANGLSTEPEPDTDVDMG
notes: Tribbles (Trbl), Drosophila pseudokinase; WT Trbl ORF; One molecule for both two-hybrid copies: each copy carries only one of the two tags; also called WT Trbl; pDEST32-Trbl; source: yeast two-hybrid fusion (MaV203 yeast)

Tests used:
[1] = target: T1, Drosophila Tribbles activation loop mutant Trbl^SLE/G, yeast two-hybrid bait (Drosophila) (UniProt Q9V3Z1); assay: two-hybrid; yeast two-hybrid assay shown in Fig. S9; orientation and conditions not given
T1 sequence: B1 chain with E286G

[2] = target: Drosophila Tribbles (Trbl), wild type, yeast two-hybrid fusion (Drosophila) (UniProt Q9V3Z1); assay: two-hybrid; MaV203 yeast; bait in pDEST32, prey in pDEST22; colony growth of co-transformants on media with increasing concentrations of 3-AT (His3 reporter)

Molecule | binding [1] | binding [2]
Slbo (C/EBP transcription factor encoded by slow border cells), yeast two-hybrid fusion (from UniProt Q02637 1-449) | binds | 
B1 |  | binds
